Laboratory results: paper PMC7550284, “The functional cooperation of 5-HT1A and mGlu4R in HEK-293 cell line” (Pharmacological Reports, 2020)
Results are given in words; binding and its absence hold for the method and conditions named. In cells and extracts the contact can be indirect. Some entries that bind do so weakly or less than the wild type. Values belong to the substance of their own block, whether it stands above or below them.

Protein sequences, listed by entry. Tags and fused reporters are not part of them. Lines headed by an entry give the natural chain unless they say otherwise; changes in a name come on top. Residues count along the entry.
UniProt Q68EF4, residues 33-912: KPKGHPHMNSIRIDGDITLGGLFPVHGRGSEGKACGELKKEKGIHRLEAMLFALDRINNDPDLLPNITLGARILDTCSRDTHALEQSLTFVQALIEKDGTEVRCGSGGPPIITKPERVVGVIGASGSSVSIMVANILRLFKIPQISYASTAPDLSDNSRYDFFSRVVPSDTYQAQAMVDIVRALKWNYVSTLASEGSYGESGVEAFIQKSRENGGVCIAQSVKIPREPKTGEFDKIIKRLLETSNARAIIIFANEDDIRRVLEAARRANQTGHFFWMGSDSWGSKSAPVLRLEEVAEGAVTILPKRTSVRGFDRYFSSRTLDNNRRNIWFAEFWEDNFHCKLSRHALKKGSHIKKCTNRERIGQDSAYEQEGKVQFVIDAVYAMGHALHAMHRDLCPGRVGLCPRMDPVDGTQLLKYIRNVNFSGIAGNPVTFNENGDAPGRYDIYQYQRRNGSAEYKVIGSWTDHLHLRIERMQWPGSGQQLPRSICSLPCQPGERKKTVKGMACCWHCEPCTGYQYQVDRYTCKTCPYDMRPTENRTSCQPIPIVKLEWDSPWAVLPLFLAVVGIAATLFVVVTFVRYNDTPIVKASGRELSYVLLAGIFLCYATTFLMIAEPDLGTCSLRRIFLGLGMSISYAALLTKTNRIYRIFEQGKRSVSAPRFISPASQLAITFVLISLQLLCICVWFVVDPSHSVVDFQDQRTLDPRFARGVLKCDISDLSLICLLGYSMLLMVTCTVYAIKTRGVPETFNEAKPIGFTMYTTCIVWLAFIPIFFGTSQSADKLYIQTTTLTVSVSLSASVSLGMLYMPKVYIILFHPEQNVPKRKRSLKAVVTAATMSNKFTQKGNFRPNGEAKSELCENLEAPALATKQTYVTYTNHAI
UniProt Q14833, residues 33-912: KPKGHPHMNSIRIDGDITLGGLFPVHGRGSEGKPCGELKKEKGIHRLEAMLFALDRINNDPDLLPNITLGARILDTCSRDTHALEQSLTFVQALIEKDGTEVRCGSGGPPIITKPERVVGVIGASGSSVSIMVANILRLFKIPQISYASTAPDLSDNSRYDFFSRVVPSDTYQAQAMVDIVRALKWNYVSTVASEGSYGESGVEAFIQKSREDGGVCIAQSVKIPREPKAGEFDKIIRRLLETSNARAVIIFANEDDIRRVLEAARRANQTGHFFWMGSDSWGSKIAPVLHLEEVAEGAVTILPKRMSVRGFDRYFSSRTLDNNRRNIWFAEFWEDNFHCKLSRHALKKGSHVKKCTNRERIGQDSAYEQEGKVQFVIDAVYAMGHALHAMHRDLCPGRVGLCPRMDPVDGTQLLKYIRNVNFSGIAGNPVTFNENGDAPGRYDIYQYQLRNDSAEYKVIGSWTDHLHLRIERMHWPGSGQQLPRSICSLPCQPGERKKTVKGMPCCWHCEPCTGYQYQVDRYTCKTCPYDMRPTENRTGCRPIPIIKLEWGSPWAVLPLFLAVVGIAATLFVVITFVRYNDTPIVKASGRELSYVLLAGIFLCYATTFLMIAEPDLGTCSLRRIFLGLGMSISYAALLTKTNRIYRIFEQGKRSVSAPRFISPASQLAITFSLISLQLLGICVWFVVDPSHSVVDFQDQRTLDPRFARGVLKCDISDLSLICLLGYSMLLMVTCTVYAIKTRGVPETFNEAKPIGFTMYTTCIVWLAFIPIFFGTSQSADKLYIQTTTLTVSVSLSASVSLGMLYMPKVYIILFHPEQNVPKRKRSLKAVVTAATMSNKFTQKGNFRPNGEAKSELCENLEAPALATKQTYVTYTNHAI
UniProt P08908: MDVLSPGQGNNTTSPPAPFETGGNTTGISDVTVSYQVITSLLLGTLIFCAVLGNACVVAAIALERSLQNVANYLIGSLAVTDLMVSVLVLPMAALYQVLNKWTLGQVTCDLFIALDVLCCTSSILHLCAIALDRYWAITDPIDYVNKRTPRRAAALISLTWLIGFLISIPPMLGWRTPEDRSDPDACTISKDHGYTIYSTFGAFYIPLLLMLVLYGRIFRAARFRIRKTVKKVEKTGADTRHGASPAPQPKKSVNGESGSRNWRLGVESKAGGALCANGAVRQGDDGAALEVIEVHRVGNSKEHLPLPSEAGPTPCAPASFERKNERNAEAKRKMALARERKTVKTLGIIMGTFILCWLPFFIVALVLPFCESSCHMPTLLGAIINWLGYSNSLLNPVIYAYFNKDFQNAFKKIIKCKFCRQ
UniProt Q64264: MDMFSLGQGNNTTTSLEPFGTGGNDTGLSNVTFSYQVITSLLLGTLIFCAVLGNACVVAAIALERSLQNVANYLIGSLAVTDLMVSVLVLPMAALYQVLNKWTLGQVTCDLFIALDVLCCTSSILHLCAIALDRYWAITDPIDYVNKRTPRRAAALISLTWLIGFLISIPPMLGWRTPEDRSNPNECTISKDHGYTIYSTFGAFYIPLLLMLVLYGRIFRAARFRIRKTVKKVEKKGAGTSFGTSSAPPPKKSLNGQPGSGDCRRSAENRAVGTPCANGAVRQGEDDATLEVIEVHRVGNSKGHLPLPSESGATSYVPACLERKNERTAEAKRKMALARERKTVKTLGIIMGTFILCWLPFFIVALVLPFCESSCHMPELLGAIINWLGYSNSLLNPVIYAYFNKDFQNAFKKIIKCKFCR

Legend:
[1] = target: mGlu4 receptor of the mouse brain (mouse (endogenous in C57BL/6J brain)) (UniProt Q68EF4); assay: proximity ligation; Duolink II in situ PLA on fixed 5 µm mouse brain sections (MEnt, CA1); rabbit anti-mGlu4 and goat anti-5-HT1A primary antibodies
[2] = target: human metabotropic glutamate receptor 4 (GRM4, variant 1) with the SNAP-tag inserted after the 28th amino acid (human) (UniProt Q14833); assay: FRET or BRET; homogeneous time-resolved FRET on intact T-REx 293 cells expressing both receptors (+Tet); mGlu4 labelled with Snap-Tb (donor), 5-HT1A with 200 nM Halo-Alexa 488 (acceptor); read in Hanks-HEPES buffer; with or without 100 μM L-Glu or (R)-(+)-8-OH DPAT
[3] = target: human 5-HT1A receptor tagged with SNAP protein (human) (UniProt P08908); assay: FRET or BRET; homogeneous time-resolved FRET on intact T-REx 293 cells expressing one SNAP-tagged receptor; labelled with 100 nM Snap-Tb (donor) and 150 nM Snap-Green (acceptor), 2 h at 37 °C; read in Hanks-HEPES buffer, 20,000 cells per well; controls: buffer, nonlabeled, single-labeled cells, 1:1 mix of separately labeled cells

- binding [1]: binds
Substance: 5-HT1A receptor of the mouse brain (from UniProt Q64264 1-421)

Substance: 5-HT1A receptor tagged with HALO-tag (from UniProt P08908 1-422)
- binding [2]: binds

Substance: human 5-HT1A receptor tagged with SNAP protein (from UniProt P08908 1-422)
- binding [3]: binds
